# Assay results reported in patent US20070027086A1.
# Sequences of proteins named here, by UniProt entry; tags and fusion partners are left off.
# UniProt Q01726: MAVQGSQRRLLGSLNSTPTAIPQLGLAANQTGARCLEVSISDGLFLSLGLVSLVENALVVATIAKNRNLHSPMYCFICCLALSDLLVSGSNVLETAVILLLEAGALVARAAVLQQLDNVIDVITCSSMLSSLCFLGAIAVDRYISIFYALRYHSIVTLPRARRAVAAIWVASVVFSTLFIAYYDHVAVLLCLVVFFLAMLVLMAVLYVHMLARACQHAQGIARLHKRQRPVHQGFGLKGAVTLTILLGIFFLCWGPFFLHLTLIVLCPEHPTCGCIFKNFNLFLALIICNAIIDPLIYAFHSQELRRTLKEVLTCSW
# No constants are given. Whether binding was seen depends on the method and setting. Some results given as binding are weak or reduced against the parent protein; the word gives no strength. Sequences can lack the tags named with a protein.
# B1: MS09 (Ser-Ser-Ile-Ile-Ser-His-dPhe-Arg-Trp-Gly-Lys-Pro-Val-NH2) (peptide)
# peptide: SSIISHFRWGKPV
# modifications: D-phenylalanine at 7 (dPhe); C-terminal amide (Val-NH2)
# Target: human MC1-receptor (melanocortin 1 receptor) (human) (UniProt Q01726)
# Assay: competition with [^125I]NDP-MSH on COS-1 cells expressing human MC1 receptor
binder,measurement,value
B1,binding,binds
